Data: patent US7803554B2, “Detection of binding factors with fluorescence polarization” (priority 2000, dated 2010)

System: d(pT)18
Assay: CE/LIFP of FITC-SSB protein probe with d(pT)18 in running buffer
Assay type: binding

## FITC-SSB: single-stranded DNA binding protein labeled with FITC
  increase in fluorescence anisotropy (DA) upon binding to the oligonucleotide: > 0.02
Free probe, 25 mM disodium tetraborate pH 9.1
  fluorescence anisotropy: 0.23
pH 9.1
  electrophoretic mobility: 1.07×10^−4 cm^2 V^−1 s^−1
  fluorescence anisotropy: 0.23
